Settings: SKIN; Ord 0 model; DS 3% / LIDO 2% in PG, infinite dose

CCN(CC)CC(=O)Nc1c(C)cccc1C [Lidocaine, lidocaine]
J (flux): 2.29 µg/cm^2/h

From article PMC8232266, “Lanolin-Based Synthetic Membranes for Transdermal Permeation and Penetration Drug Delivery Assays” (Membranes, 2021)
